# Data: PubChem BioAssay AID2417 (National Center for Advancing Translational Sciences (NCATS), 2010)
# “And” between values parts separate entries of the source, which are not always exact repeats. Equal values may be shown once. About 4,300 (3.1%) of roughly 140,000 compounds were called active. Inconclusive means that the source gave no clear call. Such entries were picked first, then a sample of the others.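 The calls were made as follows: active = readout at or below -70, meaning at least 70% loss of cells showing the perinucleolar compartment, a nuclear body marking cancer cells; inconclusive = readout between -30 and a set limit; inactive = the rest.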
# Test: High Content Assay for Compounds that inhibit the Assembly of the Perinucleolar Compartment;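 also: plate controls were DMSO wells for no effect and camptothecin positive control wells for full effect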
# Conditions: PC3M PTB-GFP, PNC prevalence imaging, 16 h; at 10 µM; active compounds read low
# How it was run: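 Compounds are pinned in duplicate onto adhered PC3M cells stably expressing GFP-tagged PTB and incubated 16 h at 37 C. Cells are then fixed, nuclei stained with Hoechst, and PNC-positive cells counted.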
row,Structure (SMILES),"activity change (PNC), negative = inhibition"
1,CSc1ncccc1C(=O)OCC(=O)N(CC(C)C)C1CCS(=O)(=O)C1 (stereo not given),inconclusive: -34.5%
2,CCOCC(=O)Nc1nc2c(s1)C(=O)CC(C)(C)C2,inactive: -15.2%
3,O=CN1CCN(C(=O)Cc2ccc([N+](=O)[O-])cc2)CC1,inconclusive: -51.3%
4,Cc1ccc(OC(C)C(=O)Nc2ccc(S(=O)(=O)Nc3cc(C)on3)cc2)cc1 (stereo not given),inconclusive: -56.2%
5,CCN(CCCNS(=O)(=O)c1ccc2c(c1)oc(=O)n2C)c1cccc(C)c1,inactive: -8%
6,Cc1ccc(N(CC(=O)NCc2ccco2)C(=O)CCC(=O)Nc2ccccn2)cc1C,inconclusive: -40.9%
7,COc1ccc(CNC(=O)c2ccc(CNc3c(NC4CCCCC4)c(=O)c3=O)cc2)cc1,inactive: 20.1%
8,O=C(CCN1CCCC1)Nc1ccccc1,inconclusive: -40.1%
9,CCN(CC)c1ccc(-c2nn3c(-c4n[nH]c5c4CCC5)nnc3s2)cc1,active: -99%
10,Nc1c(C(=O)N2CCCCC2)sc(=S)n1-c1ccccc1,inconclusive: -71.5%
11,O=C(COC(=O)c1ccc(Cl)c(S(=O)(=O)N2CCN(c3ccc(F)cc3)CC2)c1)Nc1cccc(Cl)c1,inconclusive: -40.3%
12,O=C(CN(c1cccc(C(F)(F)F)c1)S(=O)(=O)c1ccc(Cl)c([N+](=O)[O-])c1)NCc1ccccc1,inconclusive: -37.6%
13,CN(C(=O)CSc1nnc(Nc2ccccc2)s1)c1c(N)n(Cc2ccccc2)c(=O)[nH]c1=O,inconclusive: -31.2%
14,CCOC(=O)CCCNC(=O)CCNC(=O)c1ccc(OC)cc1,inconclusive: -76.8%
15,Cc1ccc(C)c(NC(=O)CCC(=O)NNC(=O)c2cccc([N+](=O)[O-])c2)c1,inconclusive: -45.3%
16,O=[N+]([O-])c1ccc(O)c(N=Cc2sc3ccccc3c2O)c1,inactive: 15.2%
17,CCCc1cc(N2CCN(c3ccccn3)CC2)n2nc(C)c(-c3ccccc3)c2n1,inactive: -1.71%
18,Cc1ccc(Nc2nnns2)cc1C,active: -81.7%
19,CC(Sc1ccc2ccccc2n1)C(=O)O (stereo not given),inactive: -0.188% and inactive: 2.35%
20,Nc1nc(SCC(=O)c2ccc(Oc3ccccc3)cc2)n[nH]1,inconclusive: -66.2%
21,CC1(C)Cc2cccc(OCC(=O)Nc3cc(C(F)(F)F)ccc3N3CCOCC3)c2O1,inconclusive: -43.7%
22,Cc1cc(OCc2ccc(C(=O)n3cccn3)o2)ccc1Cl,active: -119%
23,CCOC(=O)c1ccccc1NC(=O)N[C@@H](C)C(=O)OC,inconclusive: -67.4%
24,Cn1c(=O)c2c(nc(-n3ccnc3)n2Cc2ccc(Cl)cc2Cl)n(C)c1=O,inconclusive: -60%
25,COc1ccc(/C=N/Nc2nc(NCc3ccco3)nc(Nc3ccc(OC)cc3)n2)cc1,inactive: 13.9%
26,CCOC(=O)C1CCN(C(=O)Nc2ccc3nc(-c4ccco4)c(-c4ccco4)nc3c2)CC1,inconclusive: -47.4%
27,Cc1nc(SC2CC(=O)N(c3ccc([N+](=O)[O-])cc3)C2=O)nc2c1CCCC2 (stereo not given),inactive: 17.4%
28,Cc1ccc(O)c(/C=N/NC(=O)C2=NNC(c3ccccc3)(c3ccccc3)C2)c1,inconclusive: -31.8%

row,Structure (SMILES),"activity change (PNC), negative = inhibition"
1,Cc1ccc(N=Cc2cccc(O)c2O)c(C)c1,inconclusive: -36.3%
2,FC(F)(F)c1cc(-c2cccs2)nc(N2CCOCC2)n1,inconclusive: -54.4%
3,Cc1ccc(N(C(C)C(=O)O)S(=O)(=O)c2c(C)n[nH]c2C)cc1 (stereo not given),inactive: -5.21%
4,O=C(NC(=S)N(Cc1ccccc1)Cc1ccccc1)C1CCCCC1,inconclusive: -43.3%
5,Cc1ccc(NC(=O)c2cc(C)nn2-c2ccccc2)cc1,inactive: 5.29%
6,COCc1cc(Sc2cccc(Cl)c2Cl)nc(-c2ccccc2)n1,inconclusive: -42.2%
7,CSc1nc2nc(-c3ccccc3)cc(=O)n2[nH]1,inconclusive: -60.2%
8,O=S(=O)(Nc1ccc(-c2csc(-c3ccccc3)n2)cc1)c1ccc(F)cc1,inactive: -12.9%
9,Cn1nnnc1SCC(=O)N1CCN(c2ccc(Cl)cc2)CC1,inconclusive: -69.1%
10,COC(=O)C1=CNC=C(C(=O)OC)C1c1cccc(OC)c1,inconclusive: -31.8%
11,CCOC(=O)c1ccc(NC(=O)C(CC)(CC)C(=O)OCC)cc1,inconclusive: -44.2%
12,CCc1cccc(CC)c1-n1c(SCC(=O)c2c(N)n(C)c(=O)n(C)c2=O)nnc1-c1cccnc1,active: -134%
13,Cc1occc(=O)c1OC(=O)Nc1ccc(Cl)c(Cl)c1,active: -113%
14,CCn1c(SCC(=O)c2ccc(Cl)cc2)nnc1-c1ccoc1C,inactive: -25.2%
15,CC(Cc1ccccc1)N/C=C1\CC(=O)NC1=O (stereo not given),inactive: -27.6%
16,CC(C)Cc1nc(N2CCC(C(N)=O)CC2)c2nnn(Cc3ccccc3)c2n1,inactive: -7.12%
17,O=C(N/N=C\c1cn(-c2ccccc2)nc1-c1ccccc1)c1ccc2c(c1)OCO2,inconclusive: -33.2%
18,Cc1ccc(Nc2nnc(SCC(=O)NCCN3C(=O)CSC3=O)s2)cc1,inactive: -17.4%
19,Cc1ccc(C)c(N(CC(=O)NC2CCCC2)C(=O)CCCC(=O)Nc2ccccn2)c1,inconclusive: -43.2%
20,Cc1cccc(NC(=O)Cn2c(=O)n3nc(CCn4nc(C)cc4C)nc3c3ccccc32)c1,inactive: 43.4%
21,COc1ccc(Br)cc1C(=O)Nc1nnn(C)n1,inconclusive: -34.9%
22,O=C1c2ccccc2S(=O)(=O)c2cc(C(=O)N(c3ccccn3)c3ccccn3)ccc21,inconclusive: -45.3%
23,CCc1cc2cc(C)c(C)cc2nc1SCC(=O)NNC(=O)c1ccco1,inactive: -24.6%
24,O=C(c1ccccc1)N1CCN(C(=O)c2ccc([N+](=O)[O-])cc2)CC1,inconclusive: -53.8%
25,CS(=O)(=O)N(CC(=O)Nc1ccc2c(c1)OCCO2)Cc1ccc(Cl)cc1,inconclusive: -56.7%
26,CCOC(=O)c1c(NC(=O)c2cccs2)sc2c1CC(C)(C)OC2,inconclusive: -32%
27,CC(=O)c1oc2ccccc2c1NC(=O)CCCN1C(=O)c2ccccc2C1=O,inactive: 12.8%

# Molecules from the list above containing a thiophene ring, fused or not:
row,Structure (SMILES),"activity change (PNC), negative = inhibition"
16,O=[N+]([O-])c1ccc(O)c(N=Cc2sc3ccccc3c2O)c1,inactive: 15.2%
2,FC(F)(F)c1cc(-c2cccs2)nc(N2CCOCC2)n1,inconclusive: -54.4%
26,CCOC(=O)c1c(NC(=O)c2cccs2)sc2c1CC(C)(C)OC2,inconclusive: -32%
